The results in this text go back to paper PMC12098569.

Results are given in words; binding and its absence hold for the method and conditions named. Binding seen in cells or lysates may run through a third protein. Binding can be weak; no strength is given. For some of these results: Tags and fused reporters may be left off the sequences shown.

Test [1] concerns the target T1, TRAP1-VN173 expressed from pBiFC-TRAP1-VN173 (UniProt Q12931).
T1 sequence: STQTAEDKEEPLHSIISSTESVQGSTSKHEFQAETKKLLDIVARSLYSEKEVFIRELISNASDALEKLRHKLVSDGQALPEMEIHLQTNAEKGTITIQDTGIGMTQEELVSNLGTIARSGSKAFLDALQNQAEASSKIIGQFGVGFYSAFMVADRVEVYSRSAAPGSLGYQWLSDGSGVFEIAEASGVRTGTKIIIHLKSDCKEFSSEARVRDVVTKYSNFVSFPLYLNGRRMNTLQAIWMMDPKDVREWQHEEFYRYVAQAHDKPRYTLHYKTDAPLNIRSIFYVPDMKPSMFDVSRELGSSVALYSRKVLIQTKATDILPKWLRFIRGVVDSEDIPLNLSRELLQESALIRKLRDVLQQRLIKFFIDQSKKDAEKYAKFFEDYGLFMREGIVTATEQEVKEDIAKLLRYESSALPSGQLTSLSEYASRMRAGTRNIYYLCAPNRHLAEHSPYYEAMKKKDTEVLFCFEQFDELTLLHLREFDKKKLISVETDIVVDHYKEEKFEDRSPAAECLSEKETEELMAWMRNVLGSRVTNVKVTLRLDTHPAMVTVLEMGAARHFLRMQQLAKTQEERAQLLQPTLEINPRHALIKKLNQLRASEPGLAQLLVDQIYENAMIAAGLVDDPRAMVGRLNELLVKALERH
The test can be described thus: split reporter; BiFC with VC155 and VN173 fusions co-transfected into Vero cells; 24 h; fixed with 4% paraformaldehyde, DAPI, fluorescence microscope.

Test [2] deals with T2, PEX3-VN173 expressed from pBiFC-PEX3-VN173 (UniProt P56589).
T2 sequence: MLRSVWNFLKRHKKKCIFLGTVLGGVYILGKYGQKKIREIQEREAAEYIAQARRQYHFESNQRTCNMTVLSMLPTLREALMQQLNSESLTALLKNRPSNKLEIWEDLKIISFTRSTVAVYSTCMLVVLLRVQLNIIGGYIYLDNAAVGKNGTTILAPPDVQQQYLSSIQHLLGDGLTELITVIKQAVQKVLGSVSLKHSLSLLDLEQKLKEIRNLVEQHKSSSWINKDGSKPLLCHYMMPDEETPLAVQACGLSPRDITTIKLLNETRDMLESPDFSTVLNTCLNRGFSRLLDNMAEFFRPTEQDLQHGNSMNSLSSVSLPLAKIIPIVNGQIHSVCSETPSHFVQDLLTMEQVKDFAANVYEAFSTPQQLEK
Described as above.

In test [3] the target is T3, HA-PEX3 expressed from pcDNA3.1-HA-PEX3 (UniProt P56589).
T3 sequence: T2 sequence
Nature of the test: co-IP; Vero cells co-transfected with pcDNA3.1-GST-GRA23 and pcDNA3.1-HA-PEX3 or pcDNA3.1-HA-TRAP1, 24 h; lysates with HA magnetic beads at 4°C overnight; Western blot.

Test [4] deals with T4, HA-TRAP1 expressed from pcDNA3.1-HA-TRAP1 (UniProt Q12931).
T4 sequence: T1 sequence
The test is described as above.

Turning to “GRA23-VC155 expressed from pBiFC-GRA23-VC155 (Toxoplasma gondii)”, the binding result in test [1] and in test [2] was “binds” throughout.

Regarding “GST-GRA23 expressed from pcDNA3.1-GST-GRA23 (Toxoplasma gondii)”, the binding result in test [3] and in test [4] was “binds” each time.
